# At least one peptide structure holds a part that was inferred or is arguable (an end, a ring closure or a residue). Peptide text beside a SMILES is read from it. * marks the point of attachment. Cbz = O=C(OCc1ccccc1)*
# How the values were obtained:
# [1] = target: T1, human colon carcinoma COLO-205 p21ras farnesyltransferase (Homo sapiens, UniProt P49354+P49356); assay: Farnesylation of CA1A2X tetrapeptides and peptidomimetics (TLC), COLO-205 enzyme; format: biochemical; details: 3.6 μM peptide, 30 min at 37° C.
# T1 construct: p21ras farnesyltransferase from 60,000×g supernatant fractions was then partially purified by DEAE-sephacel chromatography; endogenous in cells; host or cells: COLO-205 human colon carcinoma cells (cytosolic 60,000×g supernatant, DEAE-sephacel fraction)
# [2] = system: Ras oncogene-transformed EJ3 cells; format: cell-based, murine; details: for IC50: Table 2, ras oncogene-transformed cells, read-out: IC50 (uM) Growth Studies
# Method: (§1) The ability of the peptides and their bis-carbobenzyloxy methyl ester derivatives (using BBM-CA1 A2 X; BBM-C-AMBA-M as examples) to inhibit tumor cell growth was determined by the well-known MTT assay. Ras oncogene-transformed EJ3 cells (a balbc 3T3 murine fibroblast (A-31) transformed with H-ras oncogene from a human bladder carcinoma) were exposed to various concentrations of peptides, peptidomimetics and their functionalized derivatives. Four days later, the percentage of live cells present relative to control was determined for each drug concentration. The extent of cell proliferation in the absence of drug was used as 100% proliferation.
# A-31 cells = assay: Cell growth inhibition, MTT assay, A-31 cells; format: cell-based, murine; details: FIG. 7A
# Method: as §1
# An important aspect of the invention is the finding that the antitumor activity of the peptidomimetics of the invention are selective for ras-transformed cells as compared to their non-transformed parent cell line. A-31 is a normal, non-tumorigenic cell line clone from balb murine fibroblasts. EJ3 is a tumorigenic (produces tumors when injected into mice) cell line that was obtained by transforming A-31 cells with H-ras isolated from a human bladder tumor. The ability of BBM-peptides and peptidomimetics to inhibit cell growth of these two related cell lines (A-31 and EJ3) was determined by MTT assay as described above.
# [3] = target: T2, p21ras farnesyltransferase from human colon carcinoma (COLO-205) (Homo sapiens, UniProt P49354+P49356); assay: p21ras farnesyltransferase activity assay, enzyme from COLO-205; format: biochemical; details: human tumor enzyme (COLO-205 and Daudi), concentrations as high as 10 μM
# T2 construct: p21ras farnesyltransferase from 60,000×g supernatant fractions was then partially purified by DEAE-sephacel chromatography; endogenous in cells; host or cells: COLO-205 human colon carcinoma cells (cytosolic 60,000×g supernatant, DEAE-sephacel fraction)
# Method: Human colon carcinoma COLO-205 cells (ATCC, Rockville, Md.) were grown to confluency in RPMI containing 10% FBS, 1% penicillin/streptomycin at 37° C and 10% Co2 atmosphere. The cells were homogenized in lysis buffer (10 mM Hepes pH 7.4, 1 mM MgCl2, 1 mM EDTA, 0.1 mM DDT, and 0.1 mM PMSF) and centrifuged at 12,000×g followed by a 60,000×g centrifugation of the supernatant. p21ras farnesyltransferase from 60,000×g supernatant fractions was then partially purified by DEAE-sephacel chromatography where it was eluted with 50 mM Tris (pH 7.5) containing 0.4M NaCl. p21ras farnesyltransferase activity was determined by measuring the amount of [3H]FPP transferred to recombinant p21H-ras as previously described (15,16). p21H-ras was isolated from E. coli strain RRI expressing p21H-ras (Hoffman-LaRoche, Inc.) as described previously (25) except for the last step of purification where HPLC was replaced by DEAE-sephacel chromatography. […]
# To determine the potency of the novel peptidomimetics relative to their parent tetrapeptides, the potency of CA1 A2 X corresponding to the carboxyl terminus ends of p21 KA -ras, p21 KB -ras and p21N-ras to inhibit p21ras farnesyltransferase from human colon carcinoma (COLO-205) and Burkitt's lymphoma (Daudi) was determined.
Compound,farnesylation by p21ras farnesyltransferase (substrate or not) [1],IC50 [2] [µM],concentration at which A-31 cell growth was inhibited (A-31 cells) [µM],inhibition of p21ras farnesyltransferase (in words) [3],"increase of tumor growth inhibitory potency on BBM functionalization ([2]; BBM derivative versus parent peptide, EJ3 cells) [fold]"
"CSCC[C@H](NC(=O)[C@@H](NC(=O)[C@@H](NC(=O)[C@@H](N)CS)C(C)C)C(C)C)C(=O)O [CVVM, Cys-Val-Val-Met, reference compound] (H-CVVM-OH)",farnesylated,–,–,–,–
CC[C@H](C)[C@H](NC(=O)[C@@H](NC(=O)[C@H](CSC(=O)OCc1ccccc1)NC(=O)OCc1ccccc1)C(C)C)C(=O)N[C@@H](CCSC)C(=O)OC [BBM-CVIM] (Cbz-C(Cbz)VIM-OMe),–,0.9 ± 0.4,500,–,–
"CC[C@H](C)[C@H](NC(=O)[C@@H](NC(=O)[C@@H](N)CS)[C@@H](C)CC)C(=O)N[C@@H](CCSC)C(=O)O [CIIM, reference compound] (H-CIIM-OH)",farnesylated,–,–,–,–
"CC[C@H](C)[C@H](NC(=O)[C@H](CS)NC(=O)[C@@H](N)C(C)C)C(=O)N[C@@H](CCSC)C(=O)O [VCIM, reference compound] (H-VCIM-OH)",but not,461 ± 68,–,did not inhibit,2

# From US5856310A, “Inhibition of farnesyltransferase” (University of Pittsburgh, priority 1995, dated 1999)
